Measurements as given in the supplement of paper PMC8256030.
This is one part of the list. Single values are uncertain here, since repeats match poorly.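 HEK293T cells were given each compound shortly before transfection with a reporter in which red mCherry is followed by the SARS-CoV-2 frameshift element and then GFP in the −1 frame, so GFP appears only after frameshifting.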

Assays:
[1] = test system: SARS-CoV-2 -1 PRF reporter mCherry-FSE-GFP(-1); experiment: mCherry (red) intensity as percent of control; higher = higher upstream reporter expression; conditions: 10 µM; 24 h; HEK293T
[2] = test system: SARS-CoV-2 -1 PRF reporter mCherry-FSE-GFP(-1); experiment: percent effect, decrease of GFP/mCherry ratio (-1 PRF reporter) relative to controls; higher = stronger frameshift inhibition; conditions: 10 µM; 24 h; HEK293T

SMILES	mCherry [1] [%]	percent effect [2] [%]
CC(=O)Oc1cc2c(s1)CCN(C(C(=O)C1CC1)c1ccccc1F)C2 (configuration not stated) [prasugrel]	117	-2.06
O=C(CCCl)NCCc1ccccc1 [fenaclon]	119	-2.21
NC[C@H](O)c1ccc(O)c(O)c1 [Norepinephrine]	77.8	0.339
CC1=C(/C=C/C(C)=C/C=C/C(C)=C/CO)C(C)(C)CCC1 [Vitamin A (Retinol)]	78.4	-8.22
CCC(C(=O)O)c1ccc(-c2ccccc2)cc1 (configuration not stated) [xenbucin]	93.7	-0.469
CC(=O)[C@@]1(O)CC[C@H]2[C@@H]3C=C(Cl)C4=CC(=O)CC[C@]4(C)[C@H]3CC[C@@]21C [chlormadinone]	97.7	-5.19
NCCc1c[nH]cn1 [Histamine Phosphate]	92.5	-2.91
CCCCC(C)(O)C/C=C/[C@H]1[C@H](O)CC(=O)[C@@H]1CCCCCCC(=O)OC (mixture of isomers) [Misoprostol]	58.4	-6.57
CC[C@H](C)[C@H](N)C(=O)O [isoleucine]	89.7	-6.22
COc1cc(OC)cc(OCCO)c1 [floverine]	122	-0.944
CNC(=S)C1(c2ccccn2)CCCS1 (configuration not stated) [picartamide]	98.9	1.35
COCCCOc1ccnc(C[S+]([O-])c2nc3ccccc3[nH]2)c1C (configuration not stated) [rabeprazole]	104	-0.631
Cc1ccccc1N1CCN(CCc2nnc3n2CCCC3)CC1	99.3	-1.53
N=C(N)N/N=C/c1c(Cl)cccc1Cl	104	-7.63
CC(C)(O/N=C(\C(=O)N[C@@H]1C(=O)N2C(C(=O)[O-])=C(C[n+]3ccccc3)CS[C@H]12)c1csc(N)n1)C(=O)O [Fortaz]	105	-3.15
Nc1nc2c(ncn2COC(CO)CO)c(=O)[nH]1	90	-5.14

SMILES	mCherry [1] [%]	percent effect [2] [%]
COc1ccccc1Oc1c(NS(=O)(=O)c2ccc(C(C)(C)C)cc2)nc(-c2ncccn2)nc1OCCO [bosentan]	90.3	0.523
C[C@@H]1NC(=O)[C@@H](N)CNC(=O)[C@H](C2CCNC(=N)N2)NC(=O)/C(=C/NC(N)=O)NC(=O)[C@H](CNC(=O)CC(N)CCCN)NC1=O.N=C1NCCC([C@@H]2NC(=O)/C(=C/NC(N)=O)NC(=O)[C@H](CNC(=O)CC(N)CCCN)NC(=O)[C@H](CO)NC(=O)[C@@H](N)CNC2=O)N1 (some centres not stated)	73.6	-4.17
Cn1nc(-c2cccc(F)c2)n(C)c1=S [suritozole]	102	-2.84
OCCc1ccccc1	108	-2.87
CN[C@H]1C(=O)N[C@@H]2Cc3ccc(cc3)Oc3cc4cc(c3O[C@@H]3O[C@H](C(=O)O)[C@@H](O)[C@H](O)[C@H]3NC(=O)CCCCCCCCC(C)C)Oc3ccc(cc3Cl)[C@@H](O)[C@@H]3NC(=O)[C@H](NC(=O)[C@@H]4NC(=O)[C@@H](NC2=O)c2cc(cc(O)c2Cl)Oc2cc1ccc2O)c1ccc(O)c(c1)-c1c(O[C@H]2O[C@H](CO)[C@@H](O)[C@H](O)[C@@H]2O)cc(O)cc1[C@@H](C(=O)NCCCN(C)C)NC3=O [Dalbavancin]	86.8	-1.2
OCC(O)CN1CCN(c2ccccc2)CC1 (configuration not stated) [dropropizine]	96.1	-1.28
O=C(O)C1CSC(C(=O)O)N1 (configuration not stated) [tidiacic]	77.8	-10.4
CC1(C)S[C@@H]2[C@H](NC(=O)COc3ccccc3)C(=O)N2[C@H]1C(=O)O [phenoxymethylpenicillin]	71.3	-0.848
O=C1CCCC(=O)C1C(=O)c1ccc(C(F)(F)F)cc1[N+](=O)[O-] [nitisinone]	95.9	-20.6
CC(=O)NCC(=O)O [aceturate]	95.8	0.812
Oc1ccc(CCNCCCCCCNCCc2ccccc2)cc1O [dopexamine]	85	-6.05
NCCCC(=O)O	102	-0.122
CCCCN(CCCC)CC(O)c1cc(Cl)cc2c1-c1ccc(Cl)cc1/C2=C/c1ccc(Cl)cc1 (configuration not stated) [lumefantrine]	108	-7.88
CO[C@H]1C[C@H](O[C@@H]2/C(C)=C/C[C@@H]3C[C@@H](C[C@]4(CC[C@H](C)[C@@H](C5CCCCC5)O4)O3)OC(=O)[C@@H]3C=C(C)/C(=N/O)[C@H]4OC/C(=C\C=C\[C@@H]2C)[C@]43O)O[C@@H](C)[C@@H]1O [selamectin]	48.3	-6.82
NCCC[C@H](N)CC(=O)N[C@H]1CNC(=O)[C@H]([C@H]2C[C@H](O)NC(N)=N2)NC(=O)/C(=C/NC(N)=O)NC(=O)[C@H](CO)NC(=O)[C@H](CO)NC1=O [viomycin]	128	2.6

Some of the entries above in another layout.
NCCCC(=O)O
  mCherry [1] [%]: 102
  percent effect [2] [%]: -0.122
CO[C@H]1C[C@H](O[C@@H]2/C(C)=C/C[C@@H]3C[C@@H](C[C@]4(CC[C@H](C)[C@@H](C5CCCCC5)O4)O3)OC(=O)[C@@H]3C=C(C)/C(=N/O)[C@H]4OC/C(=C\C=C\[C@@H]2C)[C@]43O)O[C@@H](C)[C@@H]1O [selamectin]
  mCherry [1] [%]: 48.3
  percent effect [2] [%]: -6.82
